Measurements from paper PMC8813937.
Results are given in words; binding and its absence hold for the method and conditions named. In cells and extracts the contact can be indirect. Binding can be weak; no strength is given.

Protein sequences, listed by entry. Tags and fused reporters are not part of them. Lines headed by an entry give the natural chain unless they say otherwise; changes in a name come on top.
UniProt Q00987: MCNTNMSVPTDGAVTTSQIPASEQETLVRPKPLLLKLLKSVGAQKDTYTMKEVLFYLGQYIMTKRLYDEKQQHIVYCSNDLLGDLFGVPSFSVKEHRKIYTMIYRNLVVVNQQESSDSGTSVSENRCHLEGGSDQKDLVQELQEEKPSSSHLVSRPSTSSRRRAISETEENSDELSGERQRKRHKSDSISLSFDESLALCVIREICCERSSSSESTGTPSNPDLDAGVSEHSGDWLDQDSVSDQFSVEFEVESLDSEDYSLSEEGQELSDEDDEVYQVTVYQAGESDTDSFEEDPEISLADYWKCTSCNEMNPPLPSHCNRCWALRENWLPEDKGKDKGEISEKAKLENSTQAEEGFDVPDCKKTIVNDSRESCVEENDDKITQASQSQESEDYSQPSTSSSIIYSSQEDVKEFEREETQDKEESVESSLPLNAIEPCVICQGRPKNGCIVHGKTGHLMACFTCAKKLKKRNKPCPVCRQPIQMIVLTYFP
UniProt P49821: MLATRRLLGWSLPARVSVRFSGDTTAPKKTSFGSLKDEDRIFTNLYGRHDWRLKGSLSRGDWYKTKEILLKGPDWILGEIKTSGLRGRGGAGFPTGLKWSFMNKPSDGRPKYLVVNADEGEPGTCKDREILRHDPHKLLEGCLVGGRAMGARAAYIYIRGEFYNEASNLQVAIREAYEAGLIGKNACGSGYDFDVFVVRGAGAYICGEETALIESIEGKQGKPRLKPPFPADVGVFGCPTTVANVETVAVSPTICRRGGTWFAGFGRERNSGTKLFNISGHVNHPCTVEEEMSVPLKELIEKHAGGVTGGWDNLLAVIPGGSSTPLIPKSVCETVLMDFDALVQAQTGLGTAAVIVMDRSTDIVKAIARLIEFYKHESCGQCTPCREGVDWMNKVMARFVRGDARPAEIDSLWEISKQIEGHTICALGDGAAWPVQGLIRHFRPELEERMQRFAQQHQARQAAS

What was measured:
[1] = target: mouse double minute 2 (MDM2), exogenous, full length (human) (UniProt Q00987); assay: co-IP; HEK293T cells co-transfected with both partners (exogenous, tagged or untagged); blots; protocol by reference 43
[2] = target: mouse double minute 2 (MDM2), exogenous, full length (human) (UniProt Q00987); assay: co-IP; HEK293T cells in which a third protein is co-expressed as blocker (Myc-CYTL1 with 20 μM MG132 for 6 h; HA-CYTL1 or HA-ΔCYTL1; Flag-NDUFV1) against a control vector

binding [1]: binds
binding [2]: binds
Substance: Flag-tagged NDUFV1, full length (from UniProt P49821)
